Values from PubChem BioAssay AID504774 (Drosophila RNAi Screening Center, 2011)

Purpose: 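Genes required for cells to withstand methyl methanesulphonate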 (primary screen)
Cells: Drosophila Kc167 cells
Knock-down reagent: long dsRNA against Drosophila genes, about 0.25 µg dsRNA per well
Timing: about 6 days: 3 days knock-down, then 3 days with or without MMS
Treatment: methyl methanesulphonate 0.004% (w/v) for 3 days after knock-down
Measured: 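Viability in wells given MMS, read as ATP luminescence, normalised by quantiles plate by plate and averaged across replicates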
Reading the numbers: mean viability with MMS and viability with MMS: higher = more surviving cells after MMS
The screen tested about 23,000 reagents; this is a random part of those with a known target gene and a result. 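Values are quantile-normalised luminescence on an arbitrary scale; higher means more cells surviving MMS.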 The numbers tell different reagents against one gene apart. No sequences are given here.

Target gene,reagent no.,mean viability with MMS,"viability with MMS, replicate 1","viability with MMS, replicate 2"
Kr-h1 (GeneID 33861),1,3.43e6,3.85e6,3.98e6
Kr-h1 (GeneID 33861),2,3.52e6,4.03e6,3.92e6
CG2209 (GeneID 32250),1,3.53e6,3.99e6,4.00e6
mamo (GeneID 32353),1,3.43e6,3.88e6,3.87e6
Ccp84Af (GeneID 40820),1,3.55e6,3.92e6,4.14e6
Amyrel (GeneID 36863),1,3.49e6,3.99e6,3.90e6
Pex2 (GeneID 38941),1,3.59e6,4.18e6,3.97e6
CG11663 (GeneID 31036),1,3.19e6,3.73e6,3.68e6
CG11663 (GeneID 31036),2,3.52e6,3.90e6,4.11e6
scrib (GeneID 44448),1,3.49e6,4.01e6,3.91e6
scrib (GeneID 44448),2,3.48e6,3.91e6,3.99e6
scrib (GeneID 44448),3,3.40e6,3.80e6,3.85e6
CG31278 (GeneID 41282),1,3.53e6,4.02e6,4.00e6
Gyf (GeneID 43842),1,3.50e6,4.02e6,3.92e6
MICU3 (GeneID 42357),1,3.55e6,3.97e6,4.10e6
MICU3 (GeneID 42357),2,3.56e6,3.96e6,4.12e6
Cox17 (GeneID 32439),1,3.47e6,3.87e6,3.98e6
CG1304 (GeneID 33074),1,3.56e6,3.98e6,4.10e6
magu (GeneID 36048),1,3.56e6,4.13e6,3.95e6
adp (GeneID 37073),1,3.61e6,4.09e6,4.10e6
CG43897 (GeneID 39153),1,3.15e6,3.53e6,3.55e6
CG43897 (GeneID 39153),2,3.57e6,4.17e6,3.92e6
CG43897 (GeneID 39153),3,2.90e6,3.69e6,3.69e6
CG8728 (GeneID 35748),1,3.63e6,4.05e6,4.19e6
Alg9 (GeneID 43031),1,3.25e6,3.72e6,3.73e6
beat-Va (GeneID 41578),1,3.36e6,3.83e6,3.84e6
Mp (GeneID 38769),1,4.07e6,4.75e6,4.75e6
Mp (GeneID 38769),2,3.60e6,4.02e6,4.15e6
Mp (GeneID 38769),3,3.60e6,4.23e6,3.95e6
DCX-EMAP (GeneID 39617),1,3.57e6,4.11e6,3.99e6
DCX-EMAP (GeneID 39617),2,3.28e6,3.63e6,3.75e6
CG7196 (retired record) (GeneID 34057),1,3.79e6,4.16e6,4.27e6
CG7196 (retired record) (GeneID 34057),2,3.32e6,3.70e6,3.76e6
wus (GeneID 32683),1,3.88e6,4.48e6,4.33e6
CG11191 (GeneID 35765),1,3.43e6,3.84e6,3.91e6
CG11191 (GeneID 35765),2,3.70e6,4.28e6,4.12e6
Arf6 (GeneID 36699),1,3.60e6,4.07e6,4.05e6
CG8840 (GeneID 33557),1,3.67e6,4.11e6,4.16e6

Reformatted: entries from further up
Target gene	reagent no.	mean viability with MMS	viability with MMS, replicate 1	viability with MMS, replicate 2
adp (GeneID 37073)	1	3.61e6	4.09e6	4.10e6
CG43897 (GeneID 39153)	1	3.15e6	3.53e6	3.55e6
CG43897 (GeneID 39153)	2	3.57e6	4.17e6	3.92e6
CG43897 (GeneID 39153)	3	2.90e6	3.69e6	3.69e6
CG8728 (GeneID 35748)	1	3.63e6	4.05e6	4.19e6

Further results:
Target gene,reagent no.,mean viability with MMS,"viability with MMS, replicate 1","viability with MMS, replicate 2"
CG10467 (GeneID 38697),1,3.56e6,4.00e6,4.08e6
CG7567 (GeneID 43479),1,3.41e6,3.88e6,3.80e6
Spn28Da (GeneID 34082),1,3.57e6,4.06e6,4.05e6
CG9582 (GeneID 34230),1,3.92e6,4.77e6,4.16e6
CG14212 (GeneID 32964),1,3.58e6,4.11e6,3.99e6
sbm (GeneID 32397),1,3.53e6,3.98e6,4.04e6
Rab3-GAP (GeneID 34626),1,3.57e6,3.98e6,4.14e6
hh (GeneID 42737),1,3.57e6,4.14e6,3.96e6
CG9630 (GeneID 40974),1,3.62e6,4.18e6,4.06e6
rn (GeneID 40879),1,2.88e6,3.60e6,3.60e6
rn (GeneID 40879),2,3.54e6,3.99e6,4.05e6
rn (GeneID 40879),3,3.50e6,4.01e6,3.95e6
rn (GeneID 40879),4,3.58e6,4.07e6,4.06e6
rn (GeneID 40879),5,3.29e6,3.83e6,3.83e6
hid (GeneID 40009),1,3.55e6,4.02e6,4.03e6
Tep3 (GeneID 34045),1,3.12e6,3.47e6,3.48e6
vilya (GeneID 31264),1,3.47e6,4.11e6,3.77e6
vari (GeneID 35343),1,3.53e6,4.03e6,3.95e6
CG12374 (GeneID 36410),1,3.69e6,4.01e6,4.37e6
CG4751 (GeneID 34551),1,3.58e6,4.12e6,4.03e6
ps (GeneID 44258),1,3.57e6,4.13e6,3.96e6
ps (GeneID 44258),2,3.17e6,3.70e6,3.75e6
ps (GeneID 44258),3,3.20e6,3.73e6,3.75e6
ps (GeneID 44258),4,3.58e6,4.13e6,3.96e6
ps (GeneID 44258),5,3.48e6,3.95e6,3.99e6
ssp (GeneID 39375),1,3.38e6,3.85e6,3.88e6
rux (GeneID 31535),1,3.79e6,4.10e6,4.55e6
CG42713 (GeneID 10178890),1,3.54e6,3.96e6,4.05e6
Rpn12R (GeneID 2768973),1,3.42e6,3.83e6,3.88e6
wake (GeneID 42676),1,3.76e6,4.37e6,4.14e6
wake (GeneID 42676),2,3.71e6,4.28e6,4.12e6
